{
  "source": "PubChem BioAssay AID504467",
  "about": "(National Center for Advancing Translational Sciences (NCATS), 2011)",
  "note": "Among all 330,000 compounds or so, about 7,700 (2.3%) were called active. The shares of active, inactive and inconclusive entries below differ from those in the screen. Calls follow the shape of the dose curve; as a rule, active = well fitted inhibition curve with a large enough effect; inconclusive = small, poorly fitted or top-dose-only effect, or effect the other way; inactive = flat fitted curve, though single readings scatter. A potency beside an inconclusive call is a rough fit, not a confirmed value. % is scaled to controls: 0 for no effect and ±100 for the full control effect; potency is read from the fitted curve at half-maximal effect.",
  "data": [
    {"assay": "qHTS screen for small molecules that inhibit ELG1-dependent DNA repair in human embryonic kidney (HEK293T) cells expressing luciferase-tagged ELG1; also: nearly all actives have a fitted effect of over 55% in size", "settings": "HEK293T ELG1-luciferase reporter, luminescence, 16 h, DNA damage induced by 5-fluorouridine; activity change, negative = inhibition: at 46.1 µM (top of the series)", "outline": "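HEK293T cells expressing luciferase-tagged ELG1 (2,000/well) received 5-Fluorouridine plus compound or DMSO for 16 hr at 37 °C. Luciferase was read by ONE-Glo luminescence after 30 min at room temperature.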", "values": [
      {"smiles": "COc1ccc(C(=O)c2ccc3oc(-c4ccc(OC)cc4)c(-c4ccc(O)cc4)c3c2)cc1", "Potency": "inconclusive: 29.1 µM [inhibitor, single point]"},
      {"smiles": "CCc1ccc(OCC(=O)O/N=C(\\N)c2ccncc2)c(Br)c1", "Potency": "inconclusive: 20.6 µM [activator, partial curve]"},
      {"smiles": "Cc1cc(C)cc(C(=O)NCCCc2ccccc2)c1", "activity change, negative = inhibition": "inactive: 1.18%"},
      {"smiles": "Cc1cccc(CC(=O)NCCn2c(C)cc3ccccc32)c1", "Potency": "inconclusive: 23.1 µM [inhibitor, partial curve]"},
      {"smiles": "CC(C)CCN1CCC(Cc2ccccc2)(NC(=O)c2ccccc2)C1=O", "note": "(stereo not drawn)", "Potency": "inconclusive: 23.1 µM [inhibitor, single point]"},
      {"smiles": "O=S(=O)(Nc1nc2ccccc2s1)c1cnc(Cl)c(Br)c1", "Potency": "inconclusive: 18.3 µM [inhibitor, single point]"},
      {"smiles": "COC(=O)c1cc2oc(C)cc2n1CC(=O)N(C)c1ccccc1", "activity change, negative = inhibition": "inactive: -1%"},
      {"smiles": "COc1cc2[nH]c3c(=O)n4c(nc3c2cc1OC)SCCC4", "Potency": "inconclusive: 6.51 µM [activator, single point]"},
      {"smiles": "CC(C)CN(C(=O)c1ccc([N+](=O)[O-])s1)c1c(N)n(Cc2ccccc2)c(=O)[nH]c1=O", "activity change, negative = inhibition": "inactive: -14%"},
      {"smiles": "COCCCN(C(=O)c1ccc2ccccc2n1)c1c(N)n(Cc2ccccc2)c(=O)[nH]c1=O", "Potency": "inconclusive: 18.3 µM [activator, partial curve]"},
      {"smiles": "NC(=O)CN1C(=O)NC2(CCCc3sccc32)C1=O", "note": "(stereo not drawn)", "Potency": "inconclusive: 29.1 µM [activator, partial curve, poor fit]"},
      {"smiles": "CCN(CC)S(=O)(=O)c1ccc(NC(=O)c2ccccc2N(C)S(C)(=O)=O)cc1", "activity change, negative = inhibition": "inactive: 2.09%"},
      {"smiles": "CCOC(=O)c1c(NC(=O)N/N=C/c2ccc(O)c(OC)c2)sc(C(C)=O)c1C", "Potency": "active: 4.61 µM"},
      {"smiles": "CCn1c(=O)cc(C(=O)OC)sc1=Nc1ccc(F)c(F)c1", "Potency": "inconclusive: 29.1 µM [inhibitor, single point]"},
      {"smiles": "N#CC(C(=O)NCCc1ccccc1)c1nc2ccccc2nc1N1CCOCC1", "note": "(stereo not drawn)", "Potency": "inconclusive: 25.9 µM [inhibitor, partial curve, poor fit]"},
      {"smiles": "CCc1nnc(NC(=O)C2Cc3ccccc3CN2S(=O)(=O)c2c(C)c(C)cc(C)c2C)s1", "note": "(stereo not drawn)", "Potency": "inconclusive: 8.2 µM [activator, partial curve, poor fit]"},
      {"smiles": "O=C(O)Cc1sc(Nc2ccc(F)cc2)nc1-c1cccs1", "Potency": "inconclusive: 16.4 µM [activator, partial curve]"},
      {"smiles": "CCn1nc(C)c(/C=N/NC(=S)Nc2ccc(Cl)cc2Cl)c1C", "Potency": "inconclusive: 3.26 µM [activator, partial curve, poor fit]"},
      {"smiles": "O=Cc1c(Sc2ccccc2)nc2ccccn2c1=O", "activity change, negative = inhibition": "inactive: -28.8%"},
      {"smiles": "Cc1cnc(C(=O)Nc2ccccc2C(=O)N2CCOCC2)cn1", "Potency": "inconclusive: 0.651 µM [activator, full curve, poor fit]"},
      {"smiles": "O=C(Nc1cccc(Cl)c1Cl)c1ccc(-c2ccccc2)cc1", "Potency": "inconclusive: 13 µM [activator, partial curve]"},
      {"smiles": "COc1ccc(-n2c(=S)[nH]c3c(oc4ccccc43)c2=O)cc1", "Potency": "inconclusive: 3.26 µM [activator, full curve, poor fit]"},
      {"smiles": "CN(CC(=O)NC1CCN(Cc2ccccc2)CC1)S(=O)(=O)c1ccc(Br)s1", "Potency": "inconclusive: 3.66 µM [inhibitor, single point]"},
      {"smiles": "Cc1ccc(O)c(/C=N/NC(=O)c2[nH]ncc2Br)c1", "Potency": "inconclusive: 1.64 µM [activator, full curve]"},
      {"smiles": "O=C(Nc1nnc(-c2ccccc2Cl)o1)c1ccco1", "Potency": "inconclusive: 14.6 µM [activator, partial curve]"},
      {"smiles": "Cc1ccccc1C(=O)NC(C(N)=O)P(=O)(OC(C)C)OC(C)C", "note": "(stereo not drawn)", "activity change, negative = inhibition": "inactive: 1.11%"},
      {"smiles": "Cc1ccc(Cl)cc1NC(=O)NCCN1CCCCC1", "activity change, negative = inhibition": "inactive: 2.78%"},
      {"smiles": "CC(OC(=O)c1cc(=O)c2ccccc2o1)C(=O)Nc1ccc(N(C)C)cc1", "note": "(stereo not drawn)", "Potency": "inconclusive: 18.3 µM [activator, single point]"},
      {"smiles": "CN(C(=O)CSc1cc(C(=O)c2nccn2C)c2ccccc2n1)c1ccccc1", "activity change, negative = inhibition": "inactive: -28.1%"},
      {"smiles": "CSCCC(NC(=O)c1ccccc1)C(=O)N1CCN(Cc2ccc(Cl)cc2)CC1", "note": "(stereo not drawn)", "Potency": "inconclusive: 14.6 µM [inhibitor, partial curve, poor fit]"},
      {"smiles": "CC1(C)C(c2cccs2)=[N+]([O-])C2(CCCCC/C2=N\\NC(N)=S)N1O", "note": "(stereo not drawn)", "Potency": "inconclusive: 29.1 µM [activator, single point]"},
      {"smiles": "CC1CCCN(C(=S)Nc2ccc(S(=O)(=O)N3CCCCC3)cc2)C1", "note": "(stereo not drawn)", "Potency": "inconclusive: 29.1 µM [inhibitor, partial curve, poor fit]"},
      {"smiles": "CC(C)(C)OC(=O)NCCCCCNC(=O)c1nc[nH]c1C(=O)N1CCc2ccccc2C1", "Potency": "active: 16.4 µM"},
      {"smiles": "CCOC(=O)c1sc2nccc(N(C)C)c2c1N=CNOC", "Potency": "inconclusive: 18.4 µM [inhibitor, single point]"},
      {"smiles": "Cc1ccc(OCC(=O)N(Cc2ccco2)c2c(N)n(Cc3ccccc3)c(=O)[nH]c2=O)cc1C", "activity change, negative = inhibition": "inactive: -2.74%"},
      {"smiles": "O=C(NCC1CCN(c2ccc(S(=O)(=O)N3CCOCC3)cc2)CC1)c1ccc(Cl)cc1", "Potency": "active: 20.6 µM"},
      {"smiles": "N=c1c2c3c(sc2nc2n1CCCCC2)CCCCC3", "Potency": "inconclusive: 20.6 µM [activator, partial curve, poor fit]"},
      {"smiles": "CCOC(=O)c1c(NC(=O)c2nn(CC)cc2Br)sc(C)c1C", "Potency": "inconclusive: 20.6 µM [inhibitor, partial curve]"},
      {"smiles": "CN(C)CCCNC(=O)c1ccc(-c2cc(O)c3ncccc3c2)cc1", "Potency": "inconclusive: 9.2 µM [activator, partial curve]"},
      {"smiles": "Cc1cc(=O)n2[nH]c(-c3ccc(F)cc3)cc2n1", "Potency": "inconclusive: 16.4 µM [activator, partial curve]"},
      {"smiles": "CCOC(=O)c1ccc(CNC(=O)CSc2nnc(-c3ccncc3)o2)cc1", "activity change, negative = inhibition": "inactive: 0.155%"},
      {"smiles": "CC1CCc2c(sc(NC(=O)COC(=O)c3ccc(NC(=O)CC#N)cc3)c2C#N)C1", "note": "(stereo not drawn)", "activity change, negative = inhibition": "inactive: 25.2%"},
      {"smiles": "Cc1cccc(NC(=O)/C(C#N)=C/c2ccc[nH]2)c1C", "Potency": "inconclusive: 11.6 µM [activator, partial curve]"}
    ]}
  ]
}
